# Small-molecule microarray binding calls

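Each compound is printed as two spots on a slide made to bind it covalently, so it has no test concentration; the read-out is fluorescence of the bound, labelled oligonucleotide. For the PreQ1, TPP and SAM-II riboswitches the laboratory earlier reported (doi:10.1038/s41467-019-09493-3) 1 µM RNA, 2 h, and a rule that included a mean Z-score above 3 (spot signal-to-noise against the whole library), a score well above that on a control array, and duplicate spots agreeing (coefficient of variation under 100). The data file gives only the calls; its cut-offs may differ, and compounds hitting several targets are kept. The calls come from the array alone, and fixing a compound to the slide can hide its binding.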
“active” means called a hit, “inactive” means screened and not called a hit.
This is an unselected part of the compounds tested.
A target missing from an entry has no call listed here.

Oligonucleotides screened, 5′ to 3′:
T1: PreQ1 riboswitch RNA pseudoknot, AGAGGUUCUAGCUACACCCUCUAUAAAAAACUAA. From B. subtilis. About 24,000 compounds screened, about 170 hits.
T2: SAM-II riboswitch RNA pseudoknot, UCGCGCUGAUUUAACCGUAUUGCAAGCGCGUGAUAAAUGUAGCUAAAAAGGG. About 21,000 compounds screened, about 200 hits.
T3: TPP riboswitch RNA three-way junction, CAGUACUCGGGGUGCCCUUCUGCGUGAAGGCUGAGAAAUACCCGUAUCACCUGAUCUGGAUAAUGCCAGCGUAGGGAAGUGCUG. About 24,000 compounds screened, about 160 hits.

With CCN(CCN1CCCC1)C1CCCNC1 (stereo not drawn) the screen gave T1: inactive; T2: inactive; T3: inactive. For CCSc1ccc(C(=O)N2C[C@H](N)C[C@H]2C(=O)NC)s1 the calls were T1: inactive; T2: inactive; T3: inactive. Calls for CCc1cc(N2CCC(O)CC2)nc(N2CCOCC2)n1 are T1: inactive; T2: inactive; T3: inactive. Calls for c1cncc(CNCc2cccc3[nH]ccc23)c1 are T1: inactive; T2: inactive; T3: inactive. Calls for O=C(c1ccc(CO)o1)N1CCc2c(nc(-c3ccccc3)[nH]c2=O)C1 are T1: inactive; T2: inactive; T3: inactive. For CCOCC(O)CNC(=O)c1cnc(C23CC4CC(CC(C4)C2)C3)nc1O (stereo not drawn) the calls were T1: inactive; T2: inactive; T3: inactive.

Calls for CCOC(=O)C1CCN(c2c(NCCN3CCN(c4ccccc4)CC3)c(=O)c2=O)CC1 are T1: inactive; T2: inactive; T3: inactive. For Nc1ccc(SCc2cc(=O)n3ccccc3n2)cc1 the calls were T1: inactive; T2: inactive; T3: inactive. C[C@H](CCC(=O)O)[C@H]1CCC2C3C[C@H](O)[C@@H]4C[C@H](O)CC[C@]4(C)C3CC[C@@]21C (stereo partly drawn) was scored T1: inactive; T2: inactive; T3: inactive. With NCc1cn[nH]c1-c1ccc(F)cc1 the screen gave T1: inactive; T2: inactive; T3: inactive. CC(NC(=O)c1csc(Cc2ccccc2)n1)c1nnc(N)s1 (stereo not drawn) was scored T1: inactive; T2: inactive; T3: inactive. For COc1cccc(Nc2nc(-c3ccncc3)cs2)c1 the calls were T1: inactive; T2: inactive; T3: inactive.

With Cc1nnc2c(NCCCN3CCCC3=O)nc3ccccc3n12 the screen gave T1: inactive; T2: inactive; T3: inactive. With N[C@@H](CC(=O)N1CCn2c(nnc2C(F)(F)F)C1)Cc1cc(F)c(F)cc1F the screen gave T1: inactive; T2: inactive; T3: inactive. Calls for O=C1C2C3C=CC(C3)C2C(=O)N1CCO (stereo not drawn) are T1: inactive; T2: inactive; T3: inactive. Calls for Cc1ccc(F)c(NC(=O)CCNCC2OCCc3ccccc32)c1 (stereo not drawn) are T1: inactive; T2: inactive; T3: inactive. CN(Cc1ccc(-n2cccn2)cc1)C(=O)c1ccc(SCCO)cc1 was scored T1: inactive; T2: inactive; T3: inactive. Calls for O=C(CCc1ccccn1)N1CCC(Cc2cccc(CO)c2)C1 (stereo not drawn) are T1: inactive; T2: inactive; T3: inactive.

With C=CCc1ccc(OCC(O)CN2CCN(CC)CC2)c(OC)c1.Cl.Cl (stereo not drawn) the screen gave T1: inactive; T2: inactive; T3: inactive. For CC1CCCCN1S(=O)(=O)c1cc(Br)cnc1N (stereo not drawn) the calls were T1: inactive; T3: inactive. N#Cc1c(N)nc2c(c1-c1cnc(-c3ccco3)nc1)CC(N)CC2 (stereo not drawn) was scored T1: inactive; T2: inactive; T3: inactive. Calls for COCC1=C(C(=O)OC)C(c2cccnc2)C(C#N)=C(N)O1 (stereo not drawn) are T1: inactive; T2: inactive; T3: inactive. CCOc1cc(CNCCN2CCOCC2)ccc1Oc1nnnn1-c1ccccc1 was scored T1: inactive; T3: inactive. CN(C)c1ccc(CNS(=O)(=O)c2cc(Br)cnc2N)cc1 was scored T1: inactive; T3: inactive.

For Cc1nonc1C(=O)N1CC[C@@H]2[C@@H](CCC(=O)N2CCCCO)C1 the calls were T1: inactive; T2: inactive; T3: inactive. Calls for Cl.Cl.OC(COCC1COc2ccccc2O1)CN1CCN(Cc2ccccc2)CC1 (stereo not drawn) are T1: inactive; T2: inactive; T3: inactive. CCC(Nc1cccc(OC)c1)C(=O)NCc1nccn1CC (stereo not drawn) was scored T1: inactive; T2: inactive; T3: inactive. With COC(=O)C1=C(N)OC2=C(C(=O)CC(C)(C)C2)C12C(=O)N(C)c1ccccc12 (stereo not drawn) the screen gave T1: inactive; T2: inactive; T3: inactive. With CN1C(=O)CC2(C)C1=CCc1scnc12 (stereo not drawn) the screen gave T1: inactive; T2: inactive; T3: inactive. For CCn1nc(CC(C)C)cc1C(=O)NCC(O)c1cccs1 (stereo not drawn) the calls were T1: inactive; T2: inactive; T3: inactive.

Calls for CCOC(=O)N1CCC(N2CC(=O)N3CC[C@@H](O)C[C@H]3C2=O)CC1 are T1: inactive; T2: inactive; T3: inactive.

3 of the entries, repeated:

structure	T1	T2	T3
CCOC(=O)C1CCN(c2c(NCCN3CCN(c4ccccc4)CC3)c(=O)c2=O)CC1	inactive	inactive	inactive
CCc1cc(N2CCC(O)CC2)nc(N2CCOCC2)n1	inactive	inactive	inactive
O=C1C2C3C=CC(C3)C2C(=O)N1CCO (stereo not drawn)	inactive	inactive	inactive

From ROBIN, a set of small-molecule microarray screens (doi:10.1002/anie.202211358).